Laboratory results: PubChem BioAssay AID652259 (Drosophila RNAi Screening Center, 2013)
The screen tested about 22,000 reagents; shown is a random part of those with a known target gene and a result. Over the whole deposit, 233 (1.1%) are marked active. 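Light values are raw, unnormalised plate reads; the ratio scores behind the reporter calls were not deposited.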 A number with no mark means an inactive call. Not stated in the record: the amount of reagent, the time to read-out, the dose of the treatment.

Screen: 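Knock-downs that push a Wingless-driven reporter up or down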 (primary screen)
Cells: Drosophila clone 8 imaginal disc epithelial cells
Reagent: long dsRNA against Drosophila genes
Treatment: pathway stimulated by co-transfected Wingless expression plasmid
Measured: 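Dual luciferase reads per well after Wingless plasmid stimulation: reporter firefly light and Renilla control light; activity is firefly divided by Renilla, a ratio not deposited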
Direction: firefly reporter light: higher = more Wg reporter light, before normalisation; Renilla control light: higher = more transfected or surviving cells
Call rule: 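Strong candidates differ from their plate mean by at least two out of four per-plate statistical tests; weak candidates meet just one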
Calls: active = candidate regulator (raises or lowers reporter); inactive = not a candidate

| target | DRSC id | reporter change call, replicate 1 | firefly reporter light, replicate 1 | firefly reporter light, replicate 2 | Renilla control light, replicate 1 | Renilla control light, replicate 2 |
| --- | --- | --- | --- | --- | --- | --- |
| Cog4 | DRSC03057 | – | 10500 | – | 3072 | – |
| gol | DRSC04689 | – | 10790 | – | 3760 | – |
| CG13245 | DRSC02243 | – | 12565 | – | 3909 | – |
| CG11327 | DRSC02146 | – | 2049 | 8272 | 795 | 2464 |
| Rab39 | DRSC17827 | Wg reporter activity lowered (active) | 11057 | – | 11389 | – |
| Syx6 | DRSC07032 | – | 10521 | – | 3123 | – |
| CG10958 | DRSC17768 | – | 3296 | 6746 | 1108 | 1687 |
| Cad86C | DRSC15587 | – | 19476 | – | 6441 | – |
| Cad86C | DRSC15611 | – | 10928 | – | 3280 | – |
| mAChR-A | DRSC04702 | – | 4586 | 9941 | 951 | 2787 |
| CG33017 | DRSC06573 | – | 5696 | – | 2240 | – |
| CG33017 | DRSC06574 | – | 7284 | – | 2883 | – |
| CG18281 | DRSC11742 | – | 8979 | – | 4320 | – |
| Spn28Da | DRSC02162 | – | 1324 | 4017 | 435 | 2025 |
| CG4375 | DRSC00653 | – | 2372 | 6262 | 980 | 2688 |
| CG2993 | DRSC14284 | – | 14681 | – | 3824 | – |
| CG2993 | DRSC15457 | – | 12584 | – | 1376 | – |
| CG5861 | DRSC02907 | – | 2592 | 7293 | 1608 | 3513 |
| Jhbp6 | DRSC11714 | – | 11300 | – | 4300 | – |
| Syt4 | DRSC12606 | – | 13192 | – | 3547 | – |
| CG10934 | DRSC06017 | – | 16021 | – | 3333 | – |
| CG9541 | DRSC03257 | – | 2421 | 7619 | 876 | 3495 |
| CG15130 | DRSC02430 | – | 2088 | 5779 | 682 | 2477 |
| CG8248 | DRSC07124 | – | 6514 | – | 2528 | – |
| narya | DRSC19439 | – | 2916 | 11154 | 1237 | 4115 |
| Drep2 | DRSC07528 | – | 8684 | – | 2403 | – |
| Pli | DRSC16792 | – | 4368 | 6173 | 2026 | 1837 |
| Arpc2 | DRSC02113 | – | 14674 | – | 5637 | – |
| Ir48a | DRSC05301 | – | 15449 | – | 13220 | – |
| CG11159 | DRSC06050 | – | 8103 | – | 2454 | – |
| CG4041 | DRSC18339 | – | 22120 | – | 10397 | – |
| tweek | DRSC02433 | – | 2360 | 6996 | 890 | 3042 |
| tweek | DRSC02434 | – | 3088 | 8284 | 919 | 3224 |
| tweek | DRSC02785 | Wg reporter activity raised (active) | 13396 | – | 1707 | – |
| sr | DRSC13284 | – | 2035 | – | 1325 | – |
| sr | DRSC17067 | – | 14515 | – | 2426 | – |
| CBP | DRSC17746 | – | 3636 | 9776 | 1041 | 2597 |
| Cpr67B | DRSC10373 | – | 8023 | – | 2983 | – |
| CG4770 | DRSC15639 | – | 13305 | – | 2957 | – |
| ssp5 | DRSC14955 | – | 9025 | – | 3440 | – |
| Flad1 | DRSC19898 | – | 2320 | 6422 | 737 | 2192 |
| Isha | DRSC04456 | – | 10971 | – | 2761 | – |
| CG8010 | DRSC20072 | – | 2829 | 9097 | 964 | 3420 |
| CG31819 | DRSC01532 | – | 21090 | – | 12630 | – |
| Cp190 | DRSC16607 | – | 3597 | – | 1677 | – |
| CG13255 | DRSC11702 | – | 14916 | – | 5205 | – |
| spas | DRSC15929 | – | 2282 | 8489 | 839 | 2547 |
| NP15.6 | DRSC16756 | – | 11653 | – | 2769 | – |
| mtgo | DRSC02245 | – | 5955 | 7429 | 1784 | 4788 |
| mtgo | DRSC02246 | – | 3377 | – | 2017 | – |
| mtgo | DRSC02769 | – | 5372 | – | 1465 | – |
| mtgo | DRSC21392 | – | 3.17e5 | 3.39e5 | 1.60e5 | 1.77e5 |
| mtgo | DRSC21743 | – | 2.66e5 | 4.07e5 | 2.09e5 | 1.98e5 |
| VhaAC45 | DRSC07058 | – | 6320 | – | 1538 | – |
| Sem1 | DRSC02282 | – | 3580 | 5778 | 608 | 1280 |
| CG5535 | DRSC10514 | – | 3155 | – | 1029 | – |
| Oseg2 | DRSC08343 | – | 5285 | – | 2583 | – |
| LeuRS | DRSC00581 | – | 3444 | 10277 | 1330 | 3341 |
| Lcp65Ae | DRSC11212 | – | 888 | 6301 | 833 | 2900 |
| CG14913 | DRSC02397 | – | 3192 | 9130 | 822 | 3479 |
| insb | DRSC06995 | – | 8440 | – | 2361 | – |
| AstA-R2 | DRSC14171 | – | 7398 | – | 2280 | – |
| CG12795 | DRSC00354 | – | 3760 | 11488 | 1106 | 2948 |
| CG15533 | DRSC15069 | – | 7168 | – | 2755 | – |
| Trm7-34 | DRSC16171 | – | 20731 | – | 6067 | – |
| CG14483 | DRSC06455 | – | 7654 | – | 3205 | – |
| CG8774 | DRSC16445 | – | 6220 | – | 2547 | – |
| CG11052 | DRSC14288 | – | 15264 | – | 4929 | – |
| CG32643 | DRSC18962 | – | 1895 | – | 748 | – |
| mei-9 | DRSC18792 | – | 14532 | – | 5938 | – |
| Su(var)2-10 | DRSC07721 | Wg reporter activity raised (active) | 27276 | – | 2288 | – |
| CG1774 | DRSC15258 | – | 1564 | 4394 | 1056 | 1700 |
| red | DRSC14477 | Wg reporter activity raised (active) | 8538 | – | 1021 | – |

Quoted from the listing (7 entries):
| target | DRSC id | reporter change call, replicate 1 | firefly reporter light, replicate 1 | firefly reporter light, replicate 2 | Renilla control light, replicate 1 | Renilla control light, replicate 2 |
| --- | --- | --- | --- | --- | --- | --- |
| VhaAC45 | DRSC07058 | – | 6320 | – | 1538 | – |
| Sem1 | DRSC02282 | – | 3580 | 5778 | 608 | 1280 |
| CG5535 | DRSC10514 | – | 3155 | – | 1029 | – |
| Oseg2 | DRSC08343 | – | 5285 | – | 2583 | – |
| LeuRS | DRSC00581 | – | 3444 | 10277 | 1330 | 3341 |
| Lcp65Ae | DRSC11212 | – | 888 | 6301 | 833 | 2900 |
| CG14913 | DRSC02397 | – | 3192 | 9130 | 822 | 3479 |
